Assay results from publication doi:10.1101/2025.10.31.685654v2 (biorxiv, 2026).

Test system: T1, Dm-DopC1
T1 construct: full-length homomeric pentamer expressed from cRNA in Xenopus laevis oocytes; predicted signal peptide residues 1-26
Test: two-electrode voltage clamp, Xenopus oocytes
Type: cell-based, Daphnia magna
Conditions: antagonist against 50 µM dopamine; ND96 pH 7.5, -60 mV; 4-parameter fit, bottom = 0

`CC(C)NCC(O)COc1cccc2ccccc12` (stereo not shown) [propranolol] was tested. Which IC50 did it give?
The IC50 was 100 µM.
